Drawing on article PMC12382473, “Retinoid X receptor γ interacts with peroxisome proliferator-activated receptor-γ to promote browning during adipose tissue differentiation” (Adipocyte, 2025), this text covers binding for two substances.

Sequences of proteins named here, by UniProt entry; tags and fusion partners are left off.
UniProt P37231: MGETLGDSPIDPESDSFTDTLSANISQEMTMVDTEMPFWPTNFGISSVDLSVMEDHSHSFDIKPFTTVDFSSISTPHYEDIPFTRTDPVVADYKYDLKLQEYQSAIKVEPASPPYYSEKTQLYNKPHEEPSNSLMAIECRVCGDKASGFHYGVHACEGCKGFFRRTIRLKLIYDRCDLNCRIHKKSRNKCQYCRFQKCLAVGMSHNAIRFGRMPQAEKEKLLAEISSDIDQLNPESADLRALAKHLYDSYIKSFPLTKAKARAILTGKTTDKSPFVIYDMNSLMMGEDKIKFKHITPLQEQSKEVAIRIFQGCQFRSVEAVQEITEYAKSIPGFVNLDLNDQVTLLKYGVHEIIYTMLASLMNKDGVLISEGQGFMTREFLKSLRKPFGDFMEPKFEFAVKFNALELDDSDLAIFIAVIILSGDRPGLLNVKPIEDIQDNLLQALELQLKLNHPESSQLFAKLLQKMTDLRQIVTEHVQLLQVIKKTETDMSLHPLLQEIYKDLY
UniProt Q9Y2H1: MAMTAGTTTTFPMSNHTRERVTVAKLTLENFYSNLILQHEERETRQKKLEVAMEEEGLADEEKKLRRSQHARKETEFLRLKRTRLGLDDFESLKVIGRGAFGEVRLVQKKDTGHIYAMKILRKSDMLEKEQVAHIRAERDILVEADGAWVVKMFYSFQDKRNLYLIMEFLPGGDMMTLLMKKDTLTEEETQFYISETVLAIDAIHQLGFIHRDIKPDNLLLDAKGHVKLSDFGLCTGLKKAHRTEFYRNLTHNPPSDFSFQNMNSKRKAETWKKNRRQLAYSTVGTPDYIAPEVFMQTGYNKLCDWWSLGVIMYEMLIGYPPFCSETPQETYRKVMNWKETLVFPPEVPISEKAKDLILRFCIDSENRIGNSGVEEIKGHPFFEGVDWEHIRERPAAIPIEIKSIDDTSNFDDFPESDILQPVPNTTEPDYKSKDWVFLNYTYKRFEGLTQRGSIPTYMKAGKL
UniProt Q15208: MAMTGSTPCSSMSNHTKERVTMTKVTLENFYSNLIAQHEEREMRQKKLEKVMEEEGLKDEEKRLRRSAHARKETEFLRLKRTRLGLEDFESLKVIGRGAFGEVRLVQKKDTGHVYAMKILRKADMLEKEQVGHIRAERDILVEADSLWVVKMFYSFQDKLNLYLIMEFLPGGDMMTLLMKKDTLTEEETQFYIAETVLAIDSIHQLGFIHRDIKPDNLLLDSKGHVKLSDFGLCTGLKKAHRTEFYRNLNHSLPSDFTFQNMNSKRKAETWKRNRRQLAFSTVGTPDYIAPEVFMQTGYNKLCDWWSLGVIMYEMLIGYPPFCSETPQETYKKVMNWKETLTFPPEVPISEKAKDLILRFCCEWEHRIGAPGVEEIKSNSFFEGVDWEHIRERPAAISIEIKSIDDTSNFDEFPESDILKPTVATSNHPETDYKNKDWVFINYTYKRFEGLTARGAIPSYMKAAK

These are yes or no findings as the source states them, for the method shown. In cells and extracts the contact can be indirect. Here binding means that the protein was enriched with, or labelled near, the bait; the list need not be complete.

This test concerns the target Flag-PPARγ (peroxisome proliferator-activated receptor-γ), expressed by lentivirus in human preadipocytes (UniProt P37231). In words: affinity purification with mass spectrometry; human preadipocytes (adipose SVCs) transduced with lentivirus for Flag-PPARγ or Flag-EGFP, treated with rosiglitazone (1 µM) and insulin (70 nM) for 24 h; lysate (50 mM Tris pH 7.5, 150 mM NaCl, 1% NP-40, 0.25% deoxycholate) on anti-Flag M2 magnetic beads overnight at 4°C; wash with 250 mM NaCl; elution with Flag peptide; LC-tandem mass spectrometry.

Regarding “STK38-Like (STK38L), endogenous in human preadipocytes (from UniProt Q9Y2H1 1-464)”, the binding entry is “binds”.

As for “serine/threonine kinase 38 (STK38), endogenous in human preadipocytes (from UniProt Q15208 1-465)”, the binding entry was “binds”.
